To fix the notation:
B1: tRNA (parent)
chain: GUUCCGUUGGCGUAAUGGUAACGCGUCUCCCUCCUAAGGAGAAGACUGCGGGUUCGAGUCCCGUACGGAACG

Variants at the floor of the assay are shown more often than the library holds them. Some results are limits rather than exact numbers.

This data set covers variants of B1. The experiment in a line: yeast fitness relative to wild type (ratio to wild type); higher = fitter; tRNA-Arg(CCU), competitive growth, 37 C, YPD. The procedure, abridged:
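A pool of Saccharomyces cerevisiae strains, each with a tRNA-Arg(CCU) gene variant at the native genomic locus, was competed in YPD at 37°C for 24 hours across six parallel replicates. The variants had been chemically synthesised at a 3% per-site mutation rate over 69 sites, and gene amplicons before and after competition were read by 100-nucleotide paired-end sequencing. Darwinian fitness relative to wild type rested on changes in genotype frequencies. Genotypes required ≥ 100 starting reads, and estimates < 0.5 were set to 0.5.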
GUUCCGAUGGCGUAAUGGAAACGCGUCUCCCCCCUAAGGAGAAGACUGCGGGUUCGAGUCCCGUACGAAGCG [U7A U19A U32C G68A A70G]: the yeast fitness is no more than 0.5.
Under GUUCCGUUGGGGUAAUGGUAACGCGUCUCCCUCCUAAGGAGAAGACUGCGCGUUCGAGGCCCGUACGGAACG [C11G G51C U59G] stands no more than 0.5; under GUUCCGUUGGCGUAAUGGUAACGUGACGCCCUCCUAAGGAGAAGACUGCGAGUUCGAGUCCCGUACGGAACG [C24U U26A U28G G51A], no more than 0.5; under GUUCCGUGGGCGUACUGGUAACGCGUCACCCUCCUAAGGAGAAGACUGCGGCUUCGAGUCCCGUACGGAACG [U8G A15C U28A G52C], no more than 0.5.
Under GUUCCGUUGGCGUAAUGGUUACGCGUCUCCCUCCUAACGAGAAGACUGCGGGUUCGAGUCCCGUGCGGAACG [A20U G38C A65G] stands no more than 0.5.
On to GAUCCGUUGGCGUAAUGGUGACGCGUCUCCCUCCUAAGGAGAAGACUGUGGGUUCGAGUCCCCUACGGUACG [U2A A20G C49U G63C A69U], for which the yeast fitness is no more than 0.5.
In the case of GUUUCGUUGGCGUAAUGGUAACGCGUCUCCCACCUAAGGAGAAGACUGCGGGUUCGAGUCCGGUACGGAUCG [C4U U32A C62G A70U], the yeast fitness was no more than 0.5.
The value for GUUCCGUUGGCGUAAUGGUAACGCGUCUUCCUGCUAAGGAGAAGACUGCGGGUUCGAGUCCCGUACGGAACG [C29U C33G] was 0.689.
Under GUUCUGUUGGUGUAAUGGUAACGCGUCUCCCUCAUAAGGAGAAGACUGCGGGUUCGAGUCCCGUACGGAACG [C5U C11U C34A] stands 0.558.
On to GUUCCGUUGGCGUAAUGGUAACGCGCCUCCCACCUAAGGAGAACACUGCGGGUUCGAGUCCCGUACGGAACG [U26C U32A G44C], for which the yeast fitness is no more than 0.5.
Under GUUACGUUGGCGUCAUGGUAACGCGUCUCCCUCCUAAAGAGAAGACUGCGGGUUCGAGUCCCGUACGGAACG [C4A A14C G38A] stands no more than 0.5; under GUAUCGUUGGCGUAAUGGUAACGCGUCUCCCCCCUAAGGAGAAGACUGCGGGUUCGAGUCCCGCACGGAACG [U3A C4U U32C U64C], 0.877; under GUUCCGUUGGCGUAAUGGUAACGCCUCUCCUACCUAAGGAGAAGACUGCGGGUUCGAGUCCCGUGCGGAACG [G25C C31U U32A A65G], no more than 0.5.
Take GUUCCGUUGCCGUAAUGGUGACGUGUCUCCCUCCUAACGAAAAGACUGCGGGUUCCAGUCCCGUACGGAACG [G10C A20G C24U G38C G41A G56C]: the yeast fitness was no more than 0.5.
In the case of GUUCCGUUGGCGUAAUGGUACCGCGUCUCCCUCCUAAGGAGAAGACUCCGGGUUCGAGUCCCGUACCGAACG [A21C G48C G67C], the yeast fitness is no more than 0.5.
Under GUUCCGUUGGCGUAAUGGUAACGCGUCUCCCUCCUAUGGAGAAGUCUGCGGGUUCGAGUCCCGUACGGAACG [A37U A45U] stands 0.64; under GUUCCGUUGGCGUAAUGGUAACGCGUCUCCCUGCUAAGGAGAGGAAUGCGGGUUGGAGCCCCGUACGGAACG [C33G A43G C46A C55G U59C], no more than 0.5.
In the case of GUUUCGAUGGCGUAAUGGUAACGCGUCUCCCUCCUUAGGAGAAGACUGCGGGUUCGAGUGCCGUACGGAACG [C4U U7A A36U C60G], the yeast fitness is no more than 0.5.
Under GUUCAGUUGGCGUAAUGGUAACGCGUCUCCCUCCUGAGGAGAAAACCGCGGGUUCGAGUCCCGUACGGAUCG [C5A A36G G44A U47C A70U] stands no more than 0.5; under GUUCCGUUGGCGUAAUGGUACCGCGUCUCUCGCCUAAGGAGAAGACUGCGGGCUCGAGUCCCGUACGCAGCG [A21C C30U U32G U53C G68C A70G], no more than 0.5.
The value for GUUCCGUUGGCGAAAUGGUAACGCGUCUCCCUCCUAAGGAAAAGACUGCGGGUUCGAGUCCCGUACGGCACG [U13A G41A A69C] was no more than 0.5.
The value for GAUCCGUUGGCGUAAUGGUUACGCGUCUCCCUCAUAAGGAGAAGACUGCGGGUUCGAGUCUCGUACGGAACG [U2A A20U C34A C61U] was no more than 0.5; that for GUUCCGCUGGCGUAAUGGUCACGCGUCUCCCUCCUACGGAGAAGACUGCGGGCUCGAGUCCCCUACGGAACG [U7C A20C A37C U53C G63C] was no more than 0.5.
As for GUUCCGUUGGCGUCAUGGUAACGCGUCUCCCUCCUAAGGAGAAAACUGCGGGUCCCAGUCCCGUACGGAACG [A14C G44A U54C G56C], the yeast fitness is no more than 0.5.
Regarding GUUCCCAUGGCGUAAUGGUAACGCGUCUCCCUCUUAAGGAGAAGACUGCGGGUUCGAGUCUCGUACGGAACG [G6C U7A C34U C61U], the yeast fitness came to 0.658.
The value for GUUUCGUUGGCGUAAUCGUAACGCGUCUCCCUCCUAAGGAGAUGACUGCGGGUUCGAGUCCCGUACGGAACG [C4U G17C A43U] was no more than 0.5; that for GUUCCGUUGGCGUAAUGGUAACGUGUCUCCCUCCUAAGGAGAAGACUGCCGGUUCCAGUCCCGUACGGAACG [C24U G50C G56C] was no more than 0.5.
GUUCCGUUGGCGUAAUGGUAACGCGCCUCCCUCCUAAGGAGAAGAUUGCGGGUUCGAGUCCUGUACGGAACG [U26C C46U C62U]: the yeast fitness turned out to be 0.718.
The value for GUUCCGUUGGCGUAAUGGUAAAGCGUCUCCCUCCUAAGGAGAAGACUGCGGGUUCGAGUCCCGUACUGAACG [C22A G67U] was 0.774; that for GUUCCGUUGGCGUAAUGGUAACGCCUCUCCCUCCUAAGGAGAAGACUACGGGUUCGAGUCCCGUACGUAACG [G25C G48A G68U] was no more than 0.5; that for GUUCCGUUGGCGUAAUGGUAACGCGUCUCCCUCCUAAGGCGAAGACUCCGGGUUCGAGCCCCGUACGGAACG [A40C G48C U59C] was no more than 0.5.
Under GAUACGUUGGCGUAAUGGUAACGCGUCUCCCUCCUAAGGAGGAGAUUGCGGGUUCGAGUCCCGUACGGAACG [U2A C4A A42G C46U] stands no more than 0.5; under GUUCCGUUGGCGUAAUGGUAACGCGUCUCCCUUCUAAGGAGAAGACUGCGGGUUCGAAUCCCGUAAGGAACG [C33U G58A C66A], no more than 0.5.
Under GUCCCGUUGGCGUAAAGGUAACGCGUCUCACUACUGAGGAGAAGACUGCGGGUUCGAGUCCCGUACGGAACG [U3C U16A C30A C33A A36G] stands no more than 0.5; under GUUCCGUUGGCGUAAUGGUAACGCGACUCCCUCCUAAGGAGAAGACUGCGGGUUCGAGUCCCGUACGCGACG [U26A G68C A69G], 0.572; under GUUCCGUUGGCGUAAUGGUGACGCGUCUCCCUCCUAAGGAGAGGACUGCGGCCUCGAGUCCCCUACGGAACG [A20G A43G G52C U53C G63C], no more than 0.5.
For GUUCCGUUGGCGUAAUGGUAACGCGUCUCCCUCCUAAGGAGUAGACUGCGGGCUCGAGUCCCGUACGGAACG [A42U U53C], the yeast fitness came out at 0.732.
The value for GUUCCGUCGGCGUAAUGGUAAUGCGUCUCCCCCCUAAGGAGAAGAGUGCGGGGUCGAGUCCCGUACGCAACG [U8C C22U U32C C46G U53G G68C] was no more than 0.5.
